PubChem BioAssay AID1671190 (National Center for Advancing Translational Sciences (NCATS), 2021)
“And” between values parts separate entries of the source, which are not always exact repeats. Equal values may be shown once. Among all 580,000 compounds or so, about 6,100 (1.1%) were called active. This list was built around the results that the source calls inconclusive (neither active nor inactive); the mix of calls is not that of the screen. Calls follow the shape of the dose curve; as a rule, active = well fitted inhibition curve with a large enough effect; inconclusive = small, poorly fitted or top-dose-only effect, or another doubt; inactive = no such curve, though single readings can be large or run the other way. Potencies of inconclusive entries are doubtful fits and often do not repeat.

Chains of the proteins cited; added tags and fusions are not shown. Lines headed by an entry give the natural chain unless they say otherwise; changes in a name come on top.
UniProt P18054: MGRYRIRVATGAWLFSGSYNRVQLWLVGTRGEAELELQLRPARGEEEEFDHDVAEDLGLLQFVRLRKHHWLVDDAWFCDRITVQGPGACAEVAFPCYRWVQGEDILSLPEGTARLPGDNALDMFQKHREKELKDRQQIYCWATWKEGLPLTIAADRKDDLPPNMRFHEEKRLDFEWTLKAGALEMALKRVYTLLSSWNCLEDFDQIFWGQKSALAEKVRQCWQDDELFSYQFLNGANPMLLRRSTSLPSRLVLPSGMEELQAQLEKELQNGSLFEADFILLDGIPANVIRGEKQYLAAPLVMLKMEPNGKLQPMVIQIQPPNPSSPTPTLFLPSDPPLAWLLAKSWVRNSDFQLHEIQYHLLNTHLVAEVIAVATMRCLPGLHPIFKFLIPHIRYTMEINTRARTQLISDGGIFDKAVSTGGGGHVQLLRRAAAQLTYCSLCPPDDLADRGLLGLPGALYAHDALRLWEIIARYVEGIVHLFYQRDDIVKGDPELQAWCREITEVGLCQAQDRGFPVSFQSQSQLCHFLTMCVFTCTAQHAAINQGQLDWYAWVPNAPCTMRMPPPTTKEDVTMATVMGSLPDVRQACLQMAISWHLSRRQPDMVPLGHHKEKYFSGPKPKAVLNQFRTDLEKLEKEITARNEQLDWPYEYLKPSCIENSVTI

What follows are compounds tested against Polyunsaturated fatty acid lipoxygenase ALOX12 (Homo sapiens) (UniProt P18054) (assay: Primary qHTS assay for inhibitors of human arachidonate 12S-lipoxygenase (ALOX12): Round 2). Settings: purified 12hLO, xylenol orange hydroperoxide absorbance; activity change, negative = inhibition: at 108 µM (top of the series).
Description: Assay Provider: Theodore R. Holman Ph.D. University of California, Santa Cruz, California Human lipoxygenase 12hLO is a member of the closely related lipoxygenase family of enzymes which catalyze the site-specific oxidation of arachidonic acid to various hormone precursor molecules and as such is a candidate for drug development in a variety of disease areas, such as cancer and inflammation. Inhibition of 12hLO activity was screened by utilizing arachidonic acid as a substrate. The extent of hydroperoxide product formation was measured by a secondary chromogenic reaction in which xylenol orange (XO, Sigma-Aldrich, cat. number 39,818-7) reacts with the ferric ions produced from the reaction between the hydroperoxide and ferrous ions. The Fe (III)-XO complex is characterized with red-shifted absorbance at 560 nm. A purified preparation of human 12hLO was supplied by Dr. Holman laboratory, University of California, Santa Cruz.
PROTOCOL TABLE SEQUENCE No. (e.g., 1, 2, 3, etc.); […] (e.g., Cells, Incubation, Reagent, etc.); VALUE; DESCRIPTION 1; Enzyme; 3 uL; 150 nM 12hLO enzyme solution dispensed in 1536-well Greiner black, clear bottom plates. 2; Compound; 23 nL; compounds and controls were added. 3; Incubate; 15 min; room temperature. 4; Substrate; 1 uL; 40 uM arachidonic acid (final concentration). 5; Incubate; 30 min; room temperature. 6; Reagent; 4 uL; Fe-XO solution was added to each well. 7; Incubation; 30 min; room temperature 8; Detector; absorbance; Read 1 at 405 nm absorbance using ViewLux (Perkin-Elmer) CCD imager. 9; Detector; absorbance; Read 2 at 573 nm absorbance using ViewLux (Perkin-Elmer) CCD imager. NOTES (numbers refer to sequence above) 1; 150 nM 12hLO (final concentration) in buffer solution (25 mM Hepes, 0.01% Triton X-100, pH 7.0) was dispensed in columns 1, 2, 5-48. Column 1 is neutral (100% activity). Buffer only was dispensed in columns 3 and 4 as no enzyme negative controls. The plates were covered with metal lids with gas-exchange holes. 2; Compounds were pin transferred via a Kalypsys Pin Tool (Wako USA) in column 5-48. Control compound was transferred in column 2, titration of nordihydroguaiaretic acid (NDGA, Sigma-Aldrich, N5023) with top concentration of 20 mM in DMSO then 1:3 dilution in duplicate. Dilution factor of 23 nL into 4 uL final assay volume. 3; Covered assay plates were incubated for 15 min at room temperature. 4; Substrate was added to start the reaction; 40 uM arachidonic acid (Sigma-Aldrich, St. Louis, MO) was dispensed throughout the plate. 6; Chromogenic detection reagent solution (divalent iron/xylenol orange, Fe-XO) was added to each well: 200 uM xylenol orange, 300 uM ferrous ammonium sulfate prepared freshly in 50 mM sulfuric acid. 8, 9; Two absorbance readouts were obtained at 405 nm and at 573 nm using a ViewLux high-throughput CCD plate imager (Perkin-Elmer). The 573 to 405 (Read 2 / Read 1) absorbance ratio was used to compute reaction progress.
% is scaled to controls: 0 for no effect and ±100 for the full control effect; potency is read from the fitted curve at half-maximal effect.

Row | Compound | Potency | activity change, negative = inhibition
1 | Cc1ccc2c(CCN)c(C)[nH]c2c1C | inconclusive: 0.794 µM [inhibitor, full curve, poor fit] | 
2 | Cc1ccc(OCCn2cccc2/C=C2/C(=O)NC(=O)N(Cc3ccco3)C2=O)cc1 | active: 35.5 µM | 
3 | Fc1ccc(C2=CCN(C(c3ccc(Cl)cc3)c3nnnn3Cc3ccccc3)CC2)cc1 (stereo not given) | inactive | 
4 | C=CCN1C(=O)NC(=O)/C(=C/c2c(CCN(C)C(=O)c3ccccc3)cc3c(c2OC)OCO3)C1=O | inconclusive: 28.2 µM [inhibitor, single point] | 
5 | CCn1ccc(C(=O)N2[C@H]3CC[C@@H]2c2cnc(-c4ccc(F)cc4)nc2C3)n1 | inconclusive: 25.1 µM [inhibitor, partial curve, poor fit] | 
6 | O=C(O)Cc1cnc[nH]1 | inconclusive: 0.112 µM [inhibitor, full curve, poor fit] | 
7 | Cc1cc(C)c2c(c1)NP(=S)(c1ccccc1)N2 (stereo not given) | inconclusive: 50.1 µM [inhibitor, partial curve, poor fit] | 
8 | COc1cc(/C=C(\C)[N+](=O)[O-])cc(Br)c1O | inconclusive: 28.2 µM [inhibitor, partial curve, poor fit] | 
9 | O=[N+]([O-])c1ccc(N2CCCCCC2)c2nonc12 | inconclusive: 31.6 µM [inhibitor, partial curve, poor fit] | 
10 | COC(=O)C1=C(c2ccc(OCc3ccccc3)cc2)C[C@@H]2CC[C@H]1N2C(=O)NCc1ccc2[nH]ccc2c1 | inconclusive: 39.8 µM [inhibitor, single point] | 
11 | CN1CCN(c2ncnc3c2cnn3C)CC1 | inconclusive: 35.5 µM [inhibitor, single point] | 
12 | Cc1ccc(/C=C2\C(=O)NC(=O)N(CCc3ccc(F)cc3)C2=O)o1 | inconclusive: 31.6 µM [inhibitor, partial curve] | 
13 | CC(C)(C)n1nnnc1C(c1cccc2ccccc12)N1CCC2(CC1)C(=O)NCN2c1ccccc1 (stereo not given) | inactive | 
14 | O=C(Nc1ccc(F)cc1F)c1cccn(Cc2ccccc2)c1=O | inconclusive: 79.4 µM [inhibitor, single point] | 
15 | Fc1ccc(C(OCCN2CCCC2)c2ccc(F)cc2)cc1 | inconclusive: 89.1 µM [inhibitor, single point] | 
16 | CCCNC(=O)OC[C@H]1C[C@@H]2CCN1C[C@@H]2c1cc(-c2ccccc2OC)nn1C | inconclusive: 28.2 µM [inhibitor, full curve] | 
17 | Cc1ncc2c(n1)C[C@@H]1CC[C@H]2N1C(=O)Nc1ccc(F)cc1F | inactive | 
18 | COc1ccc(CCNC(=O)c2c(N)n(CCN3CCOCC3)c3nc4ccccc4nc23)cc1OC | inactive | 
19 | O=c1[nH]c(=O)n(-c2ccccc2)c(O)c1/C=C/C=Nc1ccccc1 | inconclusive: 7.94 µM [inhibitor, partial curve, poor fit] | 
20 | Cc1cc(OC(=O)c2cccs2)c2c3c(c(=O)oc2c1)CCCC3 | inactive | 
21 | Ic1ccc(CN2CCNCC2)cc1 | inconclusive: 126 µM [inhibitor, single point] | 
22 | O=C1C(=O)c2cccc3cccc1c23 | inactive | 

Row | Compound | Potency | activity change, negative = inhibition
23 | Cc1cc(N(CCCl)CCCl)ccc1/C=N/N=C(\N)c1cnccn1 | inconclusive: 50.1 µM [inhibitor, partial curve, poor fit] | 
24 | O=C1NC(=O)C(=Cc2ccc(OCCOc3ccc([N+](=O)[O-])cc3)cc2)C(=O)N1 | inconclusive: 44.7 µM [inhibitor, partial curve, poor fit] | 
25 | Cc1ccc(S(=O)(=O)NP(=O)(Oc2ccccc2)Oc2ccccc2)cc1 | inconclusive: 2.51 µM [inhibitor, full curve, poor fit] | 
26 | O=C(Cc1cccc(C(F)(F)F)c1)N1CCN(CC(=O)N2CCCC2)CC1 | inactive | 
27 | COc1ccc(S(=O)(=O)NC[C@H]2C[C@@H]3CCN2C[C@@H]3CN2CCOCC2)cc1 | inactive | 
28 | CN(c1ccc([N+](=O)[O-])c2cnccc12)C1CCCCC1 | inactive | 
29 | O=[N+]([O-])c1ccc(N2CCC(O)CC2)c2ccncc12 | inactive | 
30 | COc1ccc(-n2c(C)nc3ccccc3c2=O)c([N+](=O)[O-])c1 | inactive | 
31 | Nc1ncccc1CN1C[C@H](c2ccc3c(c2)OCO3)[C@@H]2[C@H]1C1CCN2CC1 | inconclusive: 11.2 µM [inhibitor, partial curve] | 
32 | Cc1c(P(=S)(c2ccccc2)c2ccccc2)[n+]2ccccc2n1C | inconclusive: 50.1 µM [inhibitor, partial curve, poor fit] | 
33 | N[n+]1cn[nH]c1 | inconclusive: 10 µM [inhibitor, full curve] | 
34 | Clc1ccc(C(c2ccc(Cl)cc2)n2cc[n+](CC(OCc3ccc(Cl)cc3Cl)c3ccc(Cl)cc3Cl)c2)cc1 (stereo not given) | inconclusive: 31.6 µM [inhibitor, partial curve, poor fit] and active: 22.4 µM and active: 38.5 µM | 
35 | COC(=O)C1=C(c2ccc(F)cc2OCc2ccccc2)C[C@@H]2CC[C@H]1N2C(=O)NCc1ccc(N(C)C)cc1 | inactive | 
36 | O=[N+]([O-])c1ccc(C[n+]2c(-c3ccccc3)cc(-c3ccccc3)cc2-c2ccccc2)cc1 | inactive | 
37 | CCOc1cc2c(cc1OCC)-n1cccc1C(c1ccc(OC)cc1)NC2 (stereo not given) | inconclusive: 100 µM [inhibitor, single point] | 
38 | COc1ccc([C@@H]2C(C(=O)N3CCCC3)CC(=O)N2P(=O)(OC)OC)cc1 (stereo not given in full) | inconclusive: 100 µM [inhibitor, single point] | 
39 | COc1cc(C2SCC(=O)Nc3c2c(C)nn3-c2ccc(C)cc2)ccc1O (stereo not given) | inconclusive: 126 µM [inhibitor, single point] | 
40 | CCN1C(=O)NC(=O)/C(=C/c2cc(C)n(-c3sc(C)c(C)c3C#N)c2C)C1=O | inconclusive: 44.7 µM [inhibitor, partial curve, poor fit] | 
41 | COC(=O)C1=C(c2c(C)noc2C)C[C@@H]2CC[C@H]1N2C(=O)NC(C)C | inconclusive: 35.5 µM [inhibitor, single point] | 
42 | COc1ccccc1N1CCN(Cc2ccccc2)CC1 | inconclusive: 0.631 µM [inhibitor, full curve] | 
43 | N#CC(C#N)=C(C#N)c1ccc(Nc2ccccc2)cc1 | inconclusive: 79.4 µM [inhibitor, partial curve, poor fit] | 
44 | CCN1CCN(S(=O)(=O)c2ccc(Cl)c(C(=O)Nc3ccc(C(=O)N(CC)CC)cc3)c2)CC1 | active: 20 µM | 

Row | Compound | Potency | activity change, negative = inhibition
45 | CC(C)Cn1nc(C(=O)NCC2(N3CCOCC3)CCCCC2)c2ccccc2c1=O | inconclusive: 89.1 µM [inhibitor, single point] | 
46 | CCCNC(=O)NC(=O)COC(=O)c1cn(C)c2ccccc12 | inconclusive: 50.1 µM [inhibitor, single point] | 
47 | O=C(NC1CN2CCC1CC2)c1ccc(-c2ccc([N+](=O)[O-])cc2)o1 (stereo not given) | inconclusive: 22.4 µM [inhibitor, partial curve, poor fit] | 
48 | CN1CCC(O)(c2ccc(Cl)cc2)C(C(=O)c2ccc(Cl)cc2)C1 (stereo not given) | inconclusive: 50.1 µM [inhibitor, partial curve, poor fit] | 
49 | CC(=O)N1C2CCC1CN(Cc1cccnc1)C2 |  | inactive: 14.1% [at 12.5 µM]
50 | Clc1ccc(C2=CCC[C@H]3CC[C@@H]2N3)cn1 | inconclusive: 25.1 µM [inhibitor, partial curve, poor fit] | 
51 | Oc1ccc2c3c1O[C@H]1c4[nH]c5ccccc5c4C[C@]4(O)[C@H](C2)N(CC2CC2)CC[C@@]314 | inactive | 
52 | COc1ccc(CNCCc2ccc(Cl)cc2)c(OC)c1OC | inconclusive: 0.562 µM [inhibitor, full curve, poor fit] | 
53 | CN1CCN(/N=C/c2c(O)n(Cc3ccc(F)cc3)c(=O)[nH]c2=O)CC1 | inconclusive: 2.51 µM [inhibitor, full curve, poor fit] | 
54 | O=C(NCC1=C(c2ccc3ccccc3c2)C[C@@H]2CC[C@H]1N2Cc1ccco1)c1ccncc1 | inactive | 
55 | O=C1NCN(c2ccccc2)C12CCN(C(c1cc3ccccc3o1)c1nnnn1-c1ccc3c(c1)OCCO3)CC2 (stereo not given) | inconclusive: 158 µM [inhibitor, single point] | 
56 | COc1cc(OC)c(OC)cc1/C=C1/C(=O)NC(=O)N(Cc2ccccc2)C1=O | inconclusive: 112 µM [inhibitor, single point] | 
57 | CCCCCCOc1ccc(CN2CCN(CCO)CC2)cc1 | inconclusive: 5.62 µM [inhibitor, full curve, poor fit] | 
58 | COP(=S)(OC)Oc1ccc(Sc2ccc(OP(=S)(OC)OC)cc2)cc1 | inconclusive: 44.7 µM [inhibitor, partial curve, poor fit] | 
59 | CC(=O)O[C@H]1CCC2C3CCC4=CC(=O)CCC4=C3C=C[C@@]21C (stereo not given in full) | inactive | 
60 | CCOP(=O)(Cc1cc(C(=O)CC)c(C)o1)OCC | inconclusive: 141 µM [inhibitor, partial curve, poor fit] | 
61 | CN1C(=O)C(C)(C2=CCCCC2)C(=O)NC1=S (stereo not given) | inconclusive: 56.2 µM [inhibitor, partial curve, poor fit] | 
62 | CC(C)(C)c1cc(O)ccc1O | inconclusive: 44.7 µM [inhibitor, partial curve] | 
63 | O=C1CC(=O)N(Cc2ccccc2)C(=S)N1 | active: 25.1 µM | 
64 | O=C(Nc1ccc(F)c([N+](=O)[O-])c1)c1cccn(Cc2ccccc2)c1=O |  | inconclusive: -36.1% [inhibitor]
65 | COc1cccc(S(=O)(=O)N2[C@H]3CC[C@@H]2c2cnc(C)nc2C3)c1 | inconclusive: 28.2 µM [inhibitor, partial curve] | 

Quoted from the listing (3 entries):
Row | Compound | Potency | activity change, negative = inhibition
30 | COc1ccc(-n2c(C)nc3ccccc3c2=O)c([N+](=O)[O-])c1 | inactive | 
31 | Nc1ncccc1CN1C[C@H](c2ccc3c(c2)OCO3)[C@@H]2[C@H]1C1CCN2CC1 | inconclusive: 11.2 µM [inhibitor, partial curve] | 
32 | Cc1c(P(=S)(c2ccccc2)c2ccccc2)[n+]2ccccc2n1C | inconclusive: 50.1 µM [inhibitor, partial curve, poor fit] | 
